Literature values, collected in patent publication US11129897B2, “Fast-acting plant-based medicinal compounds and nutritional supplements” (RECEPTOR HOLDINGS, INC., priority 2016, dated 2021).

Settings: in words; cited from earlier work

Row | SMILES | solubility in water
1 | CCCCCc1cc(O)c2c(c1)OC(C)(C)[C@@H]1CCC(C)=C[C@@H]21 [THC, delta-9-tetrahydrocannabinol] | very low or no solubility in water
2 | C=C(C)[C@@H]1CCC(C)=C[C@H]1c1c(O)cc(CCCCC)cc1O [CBD, cannabidiol] | very low or no solubility in water
